These are yes or no findings as the source states them, for the method shown. In cells and extracts the contact can be indirect. A yes stands for co-enrichment or nearness to the bait. Other partners may have been found.
Biological target: GST-fused HRAS protein (GST-HRAS) (UniProt P01112)
Test: affinity purification with mass spectrometry; purified GST-HRAS (GST as control) incubated overnight at 4 °C with pre-cleared human HCC tumor or paired normal tissue lysates; glutathione agarose beads 2 h at 4 °C; washed three times with RIPA buffer; SDS-PAGE, 22 gel slices, LC-MS/MS; only the target purified

B1: ubiquitin specific peptidase 42 (USP42) (protein, UniProt Q9H9J4 1-1324)
chain: MTIVDKASESSDPSAYQNQPGSSEAVSPGDMDAGSASWGAVSSLNDVSNHTLSLGPVPGAVVYSSSSVPDKSKPSPQKDQALGDGIAPPQKVLFPSEKICLKWQQTHRVGAGLQNLGNTCFANAALQCLTYTPPLANYMLSHEHSKTCHAEGFCMMCTMQAHITQALSNPGDVIKPMFVINEMRRIARHFRFGNQEDAHEFLQYTVDAMQKACLNGSNKLDRHTQATTLVCQIFGGYLRSRVKCLNCKGVSDTFDPYLDITLEIKAAQSVNKALEQFVKPEQLDGENSYKCSKCKKMVPASKRFTIHRSSNVLTLSLKRFANFTGGKIAKDVKYPEYLDIRPYMSQPNGEPIVYVLYAVLVHTGFNCHAGHYFCYIKASNGLWYQMNDSIVSTSDIRSVLSQQAYVLFYIRSHDVKNGGELTHPTHSPGQSSPRPVISQRVVTNKQAAPGFIGPQLPSHMIKNPPHLNGTGPLKDTPSSSMSSPNGNSSVNRASPVNASASVQNWSVNRSSVIPEHPKKQKITISIHNKLPVRQCQSQPNLHSNSLENPTKPVPSSTITNSAVQSTSNASTMSVSSKVTKPIPRSESCSQPVMNGKSKLNSSVLVPYGAESSEDSDEESKGLGKENGIGTIVSSHSPGQDAEDEEATPHELQEPMTLNGANSADSDSDPKENGLAPDGASCQGQPALHSENPFAKANGLPGKLMPAPLLSLPEDKILETFRLSNKLKGSTDEMSAPGAERGPPEDRDAEPQPGSPAAESLEEPDAAAGLSSTKKAPPPRDPGTPATKEGAWEAMAVAPEEPPPSAGEDIVGDTAPPDLCDPGSLTGDASPLSQDAKGMIAEGPRDSALAEAPEGLSPAPPARSEEPCEQPLLVHPSGDHARDAQDPSQSLGAPEAAERPPAPVLDMAPAGHPEGDAEPSPGERVEDAAAPKAPGPSPAKEKIGSLRKVDRGHYRSRRERSSSGEPARESRSKTEGHRHRRRRTCPRERDRQDRHAPEHHPGHGDRLSPGERRSLGRCSHHHSRHRSGVELDWVRHHYTEGERGWGREKFYPDRPRWDRCRYYHDRYALYAARDWKPFHGGREHERAGLHERPHKDHNRGRRGCEPARERERHRPSSPRAGAPHALAPHPDRFSHDRTALVAGDNCNLSDRFHEHENGKSRKRRHDSVENSDSHVEKKARRSEQKDPLEEPKAKKHKKSKKKKKSKDKHRDRDSRHQQDSDLSAACSDADLHRHKKKKKKKKRHSRKSEDFVKDSELHLPRVTSLETVAQFRRAQGGFPLSGGPPLEGVGPFREKTKHLRMESRDDRCRLFEYGQGKRRYLELGR
binding: binds

B2: ubiquitin protein ligase E3B (UBE3B) (protein, UniProt Q7Z3V4 1-1068)
chain: MFTLSQTSRAWFIDRARQAREERLVQKERERAAVVIQAHVRSFLCRSRLQRDIRREIDDFFKADDPESTKRSALCIFKIARKLLFLFRIKEDNERFEKLCRSILSSMDAENEPKVWYVSLACSKDLTLLWIQQIKNILWYCCDFLKQLKPEILQDSRLITLYLTMLVTFTDTSTWKILRGKGESLRPAMNHICANIMGHLNQHGFYSVLQILLTRGLARPRPCLSKGTLTAAFSLALRPVIAAQFSDNLIRPFLIHIMSVPALVTHLSTVTPERLTVLESHDMLRKFIIFLRDQDRCRDVCESLEGCHTLCLMGNLLHLGSLSPRVLEEETDGFVSLLTQTLCYCRKYVSQKKSNLTHWHPVLGWFSQSVDYGLNESMHLITKQLQFLWGVPLIRIFFCDILSKKLLESQEPAHAQPASPQNVLPVKSLLKRAFQKSASVRNILRPVGGKRVDSAEVQKVCNICVLYQTSLTTLTQIRLQILTGLTYLDDLLPKLWAFICELGPHGGLKLFLECLNNDTEESKQLLAMLMLFCDCSRHLITILDDIEVYEEQISFKLEELVTISSFLNSFVFKMIWDGIVENAKGETLELFQSVHGWLMVLYERDCRRRFTPEDHWLRKDLKPSVLFQELDRDRKRAQLILQYIPHVIPHKNRVLLFRTMVTKEKEKLGLVETSSASPHVTHITIRRSRMLEDGYEQLRQLSQHAMKGVIRVKFVNDLGVDEAGIDQDGVFKEFLEEIIKRVFDPALNLFKTTSGDERLYPSPTSYIHENYLQLFEFVGKMLGKAVYEGIVVDVPFASFFLSQLLGHHHSVFYSSVDELPSLDSEFYKNLTSIKRYDGDITDLGLTLSYDEDVMGQLVCHELIPGGKTIPVTNENKISYIHLMAHFRMHTQIKNQTAALISGFRSIIKPEWIRMFSTPELQRLISGDNAEIDLEDLKKHTVYYGGFHGSHRVIIWLWDILASDFTPDERAMFLKFVTSCSRPPLLGFAYLKPPFSIRCVEVSDDQDTGDTLGSVLRGFFTIRKREPGGRLPTSSTCFNLLKLPNYSKKSVLREKLRYAISMNTGFELS
binding: binds

B3: ubiquitin specific peptidase 29 (USP29) (protein, UniProt Q9HBJ7 1-922)
chain: MISLKVCGFIQIWSQKTGMTKLKEALIETVQRQKEIKLVVTFKSGKFIRIFQLSNNIRSVVLRHCKKRQSHLRLTLKNNVFLFIDKLSYRDAKQLNMFLDIIHQNKSQQPMKSDDDWSVFESRNMLKEIDKTSFYSICNKPSYQKMPLFMSKSPTHVKKGILENQGGKGQNTLSSDVQTNEDILKEDNPVPNKKYKTDSLKYIQSNRKNPSSLEDLEKDRDLKLGPSFNTNCNGNPNLDETVLATQTLNAKNGLTSPLEPEHSQGDPRCNKAQVPLDSHSQQLQQGFPNLGNTCYMNAVLQSLFAIPSFADDLLTQGVPWEYIPFEALIMTLTQLLALKDFCSTKIKRELLGNVKKVISAVAEIFSGNMQNDAHEFLGQCLDQLKEDMEKLNATLNTGKECGDENSSPQMHVGSAATKVFVCPVVANFEFELQLSLICKACGHAVLKVEPNNYLSINLHQETKPLPLSIQNSLDLFFKEEELEYNCQMCKQKSCVARHTFSRLSRVLIIHLKRYSFNNAWLLVKNNEQVYIPKSLSLSSYCNESTKPPLPLSSSAPVGKCEVLEVSQEMISEINSPLTPSMKLTSESSDSLVLPVEPDKNADLQRFQRDCGDASQEQHQRDLENGSALESELVHFRDRAIGEKELPVADSLMDQGDISLPVMYEDGGKLISSPDTRLVEVHLQEVPQHPELQKYEKTNTFVEFNFDSVTESTNGFYDCKENRIPEGSQGMAEQLQQCIEESIIDEFLQQAPPPGVRKLDAQEHTEETLNQSTELRLQKADLNHLGALGSDNPGNKNILDAENTRGEAKELTRNVKMGDPLQAYRLISVVSHIGSSPNSGHYISDVYDFQKQAWFTYNDLCVSEISETKMQEARLHSGYIFFYMHNGIFEELLRKAENSRLPSTQAGVIPQGEYEGDSLYRPA
binding: binds

B4: RASA2 (protein, UniProt Q15283 1-850)
chain: MAAAAPAAAAASSEAPAASATAEPEAGDQDSREVRVLQSLRGKICEAKNLLPYLGPHKMRDCFCTINLDQEEVYRTQVVEKSLSPFFSEEFYFEIPRTFQYLSFYVYDKNVLQRDLRIGKVAIKKEDLCNHSGKETWFSLQPVDSNSEVQGKVHLELKLNELITENGTVCQQLVVHIKACHGLPLINGQSCDPYATVSLVGPSRNDQKKTKVKKKTSNPQFNEIFYFEVTRSSSYTRKSQFQVEEEDIEKLEIRIDLWNNGNLVQDVFLGEIKVPVNVLRTDSSHQAWYLLQPRDNGNKSSKTDDLGSLRLNICYTEDYVLPSEYYGPLKTLLLKSPDVQPISASAAYILSEICRDKNDAVLPLVRLLLHHDKLVPFATAVAELDLKDTQDANTIFRGNSLATRCLDEMMKIVGGHYLKVTLKPILDEICDSSKSCEIDPIKLKEGDNVENNKENLRYYVDKLFNTIVKSSMSCPTVMCDIFYSLRQMATQRFPNDPHVQYSAVSSFVFLRFFAVAVVSPHTFHLRPHHPDAQTIRTLTLISKTIQTLGSWGSLSKSKSSFKETFMCEFFKMFQEEGYIIAVKKFLDEISSTETKESSGTSEPVHLKEGEMYKRAQGRTRIGKKNFKKRWFCLTSRELTYHKQPGSKDAIYTIPVKNILAVEKLEESSFNKKNMFQVIHTEKPLYVQANNCVEANEWIDVLCRVSRCNQNRLSFYHPSVYLNGNWLCCQETGENTLGCKPCTAGVPADIQIDIDEDRETERIYSLFTLSLLKLQKMEEACGTIAVYQGPQKEPDDYSNFVIEDSVTTFKTIQQIKSIIEKLDEPHEKYRKKRSSSAKYGSKENPIVGKAS
binding: binds

B5: RASA4 (protein, UniProt O43374 1-803)
chain: MAKRSSLYIRIVEGKNLPAKDITGSSDPYCIVKVDNEPIIRTATVWKTLCPFWGEEYQVHLPPTFHAVAFYVMDEDALSRDDVIGKVCLTRDTIASHPKGFSGWAHLTEVDPDEEVQGEIHLRLEVWPGARACRLRCSVLEARDLAPKDRNGTSDPFVRVRYKGRTRETSIVKKSCYPRWNETFEFELQEGAMEALCVEAWDWDLVSRNDFLGKVVIDVQRLRVVQQEEGWFRLQPDQSKSRRHDEGNLGSLQLEVRLRDETVLPSSYYQPLVHLLCHEVKLGMQGPGQLIPLIEETTSTECRQDVATNLLKLFLGQGLAKDFLDLLFQLELSRTSETNTLFRSNSLASKSMESFLKVAGMQYLHGVLGPIINKVFEEKKYVELDPSKVEVKDVGCSGLHRPQTEAEVLEQSAQTLRAHLGALLSALSRSVRACPAVVRATFRQLFRRVRERFPGAQHENVPFIAVTSFLCLRFFSPAIMSPKLFHLRERHADARTSRTLLLLAKAVQNVGNMDTPASRAKEAWMEPLQPTVRQGVAQLKDFITKLVDIEEKDELDLQRTLSLQAPPVKEGPLFIHRTKGKGPLMSSSFKKLYFSLTTEALSFAKTPSSKKSALIKLANIRAAEKVEEKSFGGSHVMQVIYTDDAGRPQTAYLQCKCVNELNQWLSALRKVSINNTGLLGSYHPGVFRGDKWSCCHQKEKTGQGCDKTRSRVTLQEWNDPLDHDLEAQLIYRHLLGVEAMLWERHRELSGGAEAGTVPTSPGKVPEDSLARLLRVLQDLREAHSSSPAGSPPSEPNCLLELQT
binding: binds

B6: R-spondin3 (Rspo3), from human liver tissue (protein, UniProt Q9BXY4 22-272)
chain: QNASRGRRQRRMHPNVSQGCQGGCATCSDYNGCLSCKPRLFFALERIGMKQIGVCLSSCPSGYYGTRYPDINKCTKCKADCDTCFNKNFCTKCKSGFYLHLGKCLDNCPEGLEANNHTMECVSIVHCEVSEWNPWSPCTKKGKTCGFKRGTETRVREIIQHPSAKGNLCPPTNETRKCTVQRKKCQKGERGKKGRERKRKKPNKGESKEAIPDSKSLESSKEIPEQRENKQQQKKRKVQDKQKSVSVSTVH
binding: binds

Source: paper PMC6336889
